This is an account of results in article PMC8315052.

Sequences of proteins named here, by UniProt entry; tags and fusion partners are left off.
UniProt P06733: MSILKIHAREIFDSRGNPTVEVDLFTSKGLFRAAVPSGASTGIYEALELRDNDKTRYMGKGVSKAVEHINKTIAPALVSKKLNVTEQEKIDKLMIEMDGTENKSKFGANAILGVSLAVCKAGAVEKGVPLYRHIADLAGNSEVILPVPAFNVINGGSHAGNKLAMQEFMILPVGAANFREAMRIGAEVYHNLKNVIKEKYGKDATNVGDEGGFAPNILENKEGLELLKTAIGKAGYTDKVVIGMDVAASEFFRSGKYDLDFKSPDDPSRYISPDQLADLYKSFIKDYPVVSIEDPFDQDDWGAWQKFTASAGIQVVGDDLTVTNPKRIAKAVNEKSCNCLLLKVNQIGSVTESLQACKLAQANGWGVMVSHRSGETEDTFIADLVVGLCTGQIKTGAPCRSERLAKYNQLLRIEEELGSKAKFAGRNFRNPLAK

Results are given in words; binding and its absence hold for the method and conditions named. In cells and extracts the contact can be indirect. Here binding means that the protein was enriched with, or labelled near, the bait; the list need not be complete.

In this assay the target is T1, coiled-coil domain containing 65 (CCDC65), endogenous (human (endogenous in AGS / gastric cancer cells)) (UniProt Q8IXS2).
T1 sequence: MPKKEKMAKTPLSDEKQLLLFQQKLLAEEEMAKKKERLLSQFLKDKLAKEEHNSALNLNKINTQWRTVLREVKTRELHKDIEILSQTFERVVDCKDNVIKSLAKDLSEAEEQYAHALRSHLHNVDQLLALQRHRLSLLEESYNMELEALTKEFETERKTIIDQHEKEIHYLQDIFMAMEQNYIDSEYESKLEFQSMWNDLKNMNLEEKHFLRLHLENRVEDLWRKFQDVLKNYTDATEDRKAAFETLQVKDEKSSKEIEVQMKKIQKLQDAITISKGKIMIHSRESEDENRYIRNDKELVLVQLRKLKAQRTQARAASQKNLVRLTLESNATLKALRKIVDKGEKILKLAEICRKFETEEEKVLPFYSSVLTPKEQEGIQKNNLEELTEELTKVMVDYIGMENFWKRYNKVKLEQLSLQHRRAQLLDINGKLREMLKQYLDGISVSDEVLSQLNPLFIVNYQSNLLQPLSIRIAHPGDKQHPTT
The assay can be described thus: affinity purification with mass spectrometry; Co-IP of CCDC65 from AGS cells (Pierce Co-IP kit, 1 mg protein, 5 ug antibody, overnight 4 °C); immune complexes to Coomassie staining and mass spectrometry.

Consider “alpha-Enolase (ENO1), endogenous (from UniProt P06733 1-434)”, for which the binding result is listed as “binds”.
